The experiment “VE-cadherin (Vascular …)” concerns the target T1, VE-cadherin (Vascular Endothelial-cadherin) (human (endogenous in HUVEC)), P33151.
T1 chain: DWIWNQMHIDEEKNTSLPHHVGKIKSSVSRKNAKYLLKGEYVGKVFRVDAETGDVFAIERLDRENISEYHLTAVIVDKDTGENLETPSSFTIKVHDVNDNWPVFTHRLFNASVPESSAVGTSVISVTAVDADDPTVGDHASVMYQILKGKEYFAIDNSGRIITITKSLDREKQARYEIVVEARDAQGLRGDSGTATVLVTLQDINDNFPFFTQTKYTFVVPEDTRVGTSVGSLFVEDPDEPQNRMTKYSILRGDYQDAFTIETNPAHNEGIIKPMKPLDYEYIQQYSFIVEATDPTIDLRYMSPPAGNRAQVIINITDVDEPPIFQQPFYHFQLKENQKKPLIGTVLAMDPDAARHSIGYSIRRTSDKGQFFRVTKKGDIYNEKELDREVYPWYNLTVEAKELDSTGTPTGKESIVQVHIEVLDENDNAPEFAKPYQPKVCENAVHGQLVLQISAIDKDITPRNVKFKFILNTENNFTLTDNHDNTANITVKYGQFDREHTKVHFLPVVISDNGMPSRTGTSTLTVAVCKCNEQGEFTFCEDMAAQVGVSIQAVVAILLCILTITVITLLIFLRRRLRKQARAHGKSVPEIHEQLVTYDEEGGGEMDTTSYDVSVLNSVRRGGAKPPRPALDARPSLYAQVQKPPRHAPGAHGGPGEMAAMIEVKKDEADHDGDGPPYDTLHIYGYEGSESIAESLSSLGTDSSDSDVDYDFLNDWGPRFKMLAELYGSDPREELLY
The experiment is described as follows: co-IP; HUVEC treated with PAI-039 (25 μM) or solvent (DMSO 0.1%) for four hours; NP-40 lysis buffer (25 mM Tris, 100 mM NaCl, 10 mM MgCl2, 10% glycerol, 1% Nonidet P-40, pH 7.4); lysate incubated with 2 μg mouse monoclonal VE-cadherin antibody and protein G-sepharose at 4°C; five washes; western blot. As to conditions: remark: other sources report otherwise. In general terms: Immunoblotting shows a protein as a band on a membrane.

The target in experiment [1] is T2, VE-cadherin (Vascular Endothelial-cadherin) (human (endogenous in HUVEC)) (UniProt P33151).
T2 sequence: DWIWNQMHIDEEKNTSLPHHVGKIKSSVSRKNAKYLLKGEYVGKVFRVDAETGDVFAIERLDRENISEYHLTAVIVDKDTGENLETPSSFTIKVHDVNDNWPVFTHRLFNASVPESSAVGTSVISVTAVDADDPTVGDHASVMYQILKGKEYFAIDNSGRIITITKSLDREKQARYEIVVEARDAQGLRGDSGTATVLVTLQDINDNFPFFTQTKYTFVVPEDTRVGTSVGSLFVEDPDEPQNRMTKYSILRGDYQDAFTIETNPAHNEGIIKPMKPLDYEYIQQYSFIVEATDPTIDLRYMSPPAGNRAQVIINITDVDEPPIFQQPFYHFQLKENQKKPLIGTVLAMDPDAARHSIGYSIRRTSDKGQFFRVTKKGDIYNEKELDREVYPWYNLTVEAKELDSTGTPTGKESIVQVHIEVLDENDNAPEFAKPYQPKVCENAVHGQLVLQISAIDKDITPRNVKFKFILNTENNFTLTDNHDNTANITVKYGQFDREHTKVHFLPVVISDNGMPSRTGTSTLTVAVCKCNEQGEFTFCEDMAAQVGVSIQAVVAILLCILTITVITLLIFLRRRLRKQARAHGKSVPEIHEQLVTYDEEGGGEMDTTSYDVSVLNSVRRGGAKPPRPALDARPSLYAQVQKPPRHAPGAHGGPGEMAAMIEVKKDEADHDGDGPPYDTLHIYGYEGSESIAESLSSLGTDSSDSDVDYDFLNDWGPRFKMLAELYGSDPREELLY
The experiment is described as above.

Among the data in paper PMC4694698 are binding values, retold here.

No constants are given. Whether binding was seen depends on the method and setting. In cells and extracts the contact can be indirect. Some binding calls cover weakened binding; strength is not graded here.

B1: β-catenin, P35222 1-781 (protein)
chain: MATQADLMELDMAMEPDRKAAVSHWQQQSYLDSGIHSGATTTAPSLSGKGNPEEEDVDTSQVLYEWEQGFSQSFTQEQVADIDGQYAMTRAQRVRAAMFPETLDEGMQIPSTQFDAAHPTNVQRLAEPSQMLKHAVVNLINYQDDAELATRAIPELTKLLNDEDQVVVNKAAVMVHQLSKKEASRHAIMRSPQMVSAIVRTMQNTNDVETARCTAGTLHNLSHHREGLLAIFKSGGIPALVKMLGSPVDSVLFYAITTLHNLLLHQEGAKMAVRLAGGLQKMVALLNKTNVKFLAITTDCLQILAYGNQESKLIILASGGPQALVNIMRTYTYEKLLWTTSRVLKVLSVCSSNKPAIVEAGGMQALGLHLTDPSQRLVQNCLWTLRNLSDAATKQEGMEGLLGTLVQLLGSDDINVVTCAAGILSNLTCNNYKNKMMVCQVGGIEALVRTVLRAGDREDITEPAICALRHLTSRHQEAEMAQNAVRLHYGLPVVVKLLHPPSHWPLIKATVGLIRNLALCPANHAPLREQGAIPRLVQLLVRAHQDTQRRTSMGGTQQQFVEGVRMEEIVEGCTGALHILARDVHNRIVIRGLNTIPLFVQLLYSPIENIQRVAAGVLCELAQDKEAAEAIEAEGATAPLTELLHSRNEGVATYAAAVLFRMSEDKPQDYKKRLSVELTSSLFRTEPMAWNETADLGLDIGAQGEPLGYRQDDPSYRSFHSGGYGQDALGMDPMMEHEMGGHHPGADYPVDGLPDLGHAQDLMDGLPPGDSNQLAWFDTDL
In the case of B1, the binding result with VE-cadherin (Vascular …) is given as “binds”.

B2: p120 catenin (protein, UniProt O60716 1-968)
chain: MDDSEVESTASILASVKEQEAQFEKLTRALEEERRHVSAQLERVRVSPQDANPLMANGTLTRRHQNGRFVGDADLERQKFSDLKLNGPQDHSHLLYSTIPRMQEPGQIVETYTEEDPEGAMSVVSVETSDDGTTRRTETTVKKVVKTVTTRTVQPVAMGPDGLPVDASSVSNNYIQTLGRDFRKNGNGGPGPYVGQAGTATLPRNFHYPPDGYSRHYEDGYPGGSDNYGSLSRVTRIEERYRPSMEGYRAPSRQDVYGPQPQVRVGGSSVDLHRFHPEPYGLEDDQRSMGYDDLDYGMMSDYGTARRTGTPSDPRRRLRSYEDMIGEEVPSDQYYWAPLAQHERGSLASLDSLRKGGPPPPNWRQPELPEVIAMLGFRLDAVKSNAAAYLQHLCYRNDKVKTDVRKLKGIPVLVGLLDHPKKEVHLGACGALKNISFGRDQDNKIAIKNCDGVPALVRLLRKARDMDLTEVITGTLWNLSSHDSIKMEIVDHALHALTDEVIIPHSGWEREPNEDCKPRHIEWESVLTNTAGCLRNVSSERSEARRKLRECDGLVDALIFIVQAEIGQKDSDSKLVENCVCLLRNLSYQVHREIPQAERYQEAAPNVANNTGPHAASCFGAKKGKDEWFSRGKKPIEDPANDTVDFPKRTSPARGYELLFQPEVVRIYISLLKESKTPAILEASAGAIQNLCAGRWTYGRYIRSALRQEKALSAIADLLTNEHERVVKAASGALRNLAVDARNKELIGKHAIPNLVKNLPGGQQNSSWNFSEDTVISILNTINEVIAENLEAAKKLRETQGIEKLVLINKSGNRSEKEVRAAALVLQTIWGYKELRKPLEKEGWKKSDFQVNLNNASRSQSSHSYDDSTLPLIDRNQKSDKKPDREEIQMSNMGSNTKSLDNNYSTPNERGDHNRTLDRSGDLGDMEPLKGTTPLMQDEGQESLEEELDVLVLDDEGGQVSYPSMQKI
Consider B2, for which the binding result in experiment [1] was “binds”.
